We go through three molecules from US20180079822A1 (UNITED STATES OF AMERICA AS REPRESENTED BY THE SECRETARY OF …, published 2018).

The chains behind the UniProt entries cited, without tags or fusion partners. Where a name states a change or a piece, a line headed by the entry shows the natural chain unless it says otherwise.
UniProt P11836: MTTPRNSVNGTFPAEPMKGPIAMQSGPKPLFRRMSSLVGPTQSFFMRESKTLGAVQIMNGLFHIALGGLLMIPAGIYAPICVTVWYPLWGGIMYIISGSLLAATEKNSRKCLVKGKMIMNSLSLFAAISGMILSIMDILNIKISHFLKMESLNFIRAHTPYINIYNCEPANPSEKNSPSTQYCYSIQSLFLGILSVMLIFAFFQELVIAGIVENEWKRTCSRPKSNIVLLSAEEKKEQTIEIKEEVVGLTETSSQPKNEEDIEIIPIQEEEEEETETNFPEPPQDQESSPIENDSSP

Results are given in words; binding and its absence hold for the method and conditions named. Some entries that bind do so weakly or less than the wild type.

The target of this assay is T1, CD20-Hoc fusion protein (human; T4 phage, UniProt P11836 142-187; P18056 1-376, limits assumed).
T1 construct: also called Hoc-CD20; Hoc-CD
The assay is described as follows: SPR. In general terms: Surface plasmon resonance follows binding to a sensor surface in real time, without labels.

B1: M24E (VHH)
VHH: DVQLQASGGGLVQAGGSLRLSCAASGSTFSIKHHGWYRRAPGNQREWVAGISSENITNVAEAVKGRFTISRDNAKNTVYLQMNSLKVEDTAVYYCYAQDNDYRFLHRFWGQGTQVTVSL
notes: also called bt-M24E; anti-CD20 sdAb M24E
B1: the binding entry is recorded as “binds”.

B2: M28C (VHH)
VHH: DVQLQASGGGLVQAGGSLRLSCAASGSTFSIKHHGWYRRAPGNQREWVAGINSENITNVAGAVKGRFTISRDNAKNTVYLQMNSLKVEDTAVYFCYAQDNDYRFLHRFWGQGTQVTVSL
notes: also called bt-M28C; anti-CD20 sdAb M28C
In the case of B2, the binding result is given as “binds”.

B3: M112D (VHH)
VHH: DVQLQASGGGLVQAEGSLRLSCAASGSTFGIKHHGWYRRAPGNQREWVAGISSENITNVAEAVKGRFTISRDNAKNTVYLQMNSLKVEDTAVYYCYAQDNNYRFLHRFWGQGTQVTVSL
notes: also called bt-M112D; anti-CD20 sdAb M112D
On to B3, for which the binding entry is “binds”.
